Test results: publication PMC2423482, “UDP-N-Acetylglucosamine 2-Epimerase/N-Acetylmannosamine Kinase (GNE) Binds to Alpha-Actinin 1: Novel Pathways in Skeletal Muscle?” (PLoS ONE, 2008)
Results are given in words; binding and its absence hold for the method and conditions named. Binding seen in cells or lysates may run through a third protein. These calls come from enrichment with a bait or labelling near it, and not all partners need be listed. Sequences can lack the tags named with a protein.

The chains behind the UniProt entries cited, without tags or fusion partners.
UniProt P12814: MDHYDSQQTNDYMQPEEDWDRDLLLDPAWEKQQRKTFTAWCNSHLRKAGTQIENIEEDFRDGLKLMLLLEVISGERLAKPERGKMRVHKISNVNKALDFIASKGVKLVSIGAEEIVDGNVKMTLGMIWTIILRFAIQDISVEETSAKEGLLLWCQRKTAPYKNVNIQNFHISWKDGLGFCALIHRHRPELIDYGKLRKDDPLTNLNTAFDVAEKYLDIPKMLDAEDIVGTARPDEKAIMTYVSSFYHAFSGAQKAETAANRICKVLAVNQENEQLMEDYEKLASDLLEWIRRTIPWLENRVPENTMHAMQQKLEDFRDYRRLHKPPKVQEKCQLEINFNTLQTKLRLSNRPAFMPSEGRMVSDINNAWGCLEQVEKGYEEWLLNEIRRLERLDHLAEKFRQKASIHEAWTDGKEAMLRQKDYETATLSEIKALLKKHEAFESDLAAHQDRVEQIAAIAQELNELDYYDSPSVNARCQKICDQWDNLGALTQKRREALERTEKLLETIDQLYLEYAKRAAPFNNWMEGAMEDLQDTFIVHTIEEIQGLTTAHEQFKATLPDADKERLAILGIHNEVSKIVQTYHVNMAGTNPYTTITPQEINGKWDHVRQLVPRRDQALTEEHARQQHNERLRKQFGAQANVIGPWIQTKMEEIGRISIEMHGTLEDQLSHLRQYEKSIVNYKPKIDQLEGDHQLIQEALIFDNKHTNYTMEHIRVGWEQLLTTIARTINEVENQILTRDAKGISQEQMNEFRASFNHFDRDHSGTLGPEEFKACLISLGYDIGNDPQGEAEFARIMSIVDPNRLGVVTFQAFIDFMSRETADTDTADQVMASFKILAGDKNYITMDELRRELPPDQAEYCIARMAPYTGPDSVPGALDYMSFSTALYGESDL

Target: T1, His-tagged wild type UDP-N-acetylglucosamine 2-epimerase/N-acetylmannosamine kinase (GNE) (human) (UniProt Q9Y223)
T1 sequence: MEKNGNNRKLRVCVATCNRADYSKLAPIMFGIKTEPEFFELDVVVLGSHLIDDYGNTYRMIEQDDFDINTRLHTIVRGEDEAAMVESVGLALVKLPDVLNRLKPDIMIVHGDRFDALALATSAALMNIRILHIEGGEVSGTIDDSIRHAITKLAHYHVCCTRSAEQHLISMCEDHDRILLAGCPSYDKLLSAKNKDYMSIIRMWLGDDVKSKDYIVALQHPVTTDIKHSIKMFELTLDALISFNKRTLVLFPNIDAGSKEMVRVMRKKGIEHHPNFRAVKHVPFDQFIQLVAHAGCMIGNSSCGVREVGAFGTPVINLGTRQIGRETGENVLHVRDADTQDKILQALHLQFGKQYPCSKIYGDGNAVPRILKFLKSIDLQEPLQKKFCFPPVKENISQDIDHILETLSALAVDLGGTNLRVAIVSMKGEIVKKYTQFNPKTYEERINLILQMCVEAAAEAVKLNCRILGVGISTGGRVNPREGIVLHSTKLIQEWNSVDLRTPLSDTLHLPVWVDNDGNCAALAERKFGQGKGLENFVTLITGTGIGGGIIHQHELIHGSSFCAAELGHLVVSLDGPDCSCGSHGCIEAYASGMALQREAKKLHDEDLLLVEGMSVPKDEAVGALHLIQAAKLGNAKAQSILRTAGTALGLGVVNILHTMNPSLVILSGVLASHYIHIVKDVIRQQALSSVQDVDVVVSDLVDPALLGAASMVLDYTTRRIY
Assay: affinity purification with mass spectrometry; in vitro binding assay: His-tagged GNE pre-bound to Ni-NTA beads, incubated 2 h at 4°C with pooled BIAcore-positive anion-exchange fractions (#11-13, #14-16) of muscle cell lysate; washed in NaPi buffer pH 7.5 with 100 mM NaCl; SDS-PAGE, bands identified by MS; only the target purified

binding: binds
Substance: α-actinin 1 of human skeletal muscle primary culture cell lysate (from UniProt P12814 1-892)
